Measured values as given in paper PMC12284142.

Biological target: T1, Interleukin enhancer-binding factor 3 (ILF3) (human (endogenous in SW620)) (UniProt Q12906)
T1 sequence: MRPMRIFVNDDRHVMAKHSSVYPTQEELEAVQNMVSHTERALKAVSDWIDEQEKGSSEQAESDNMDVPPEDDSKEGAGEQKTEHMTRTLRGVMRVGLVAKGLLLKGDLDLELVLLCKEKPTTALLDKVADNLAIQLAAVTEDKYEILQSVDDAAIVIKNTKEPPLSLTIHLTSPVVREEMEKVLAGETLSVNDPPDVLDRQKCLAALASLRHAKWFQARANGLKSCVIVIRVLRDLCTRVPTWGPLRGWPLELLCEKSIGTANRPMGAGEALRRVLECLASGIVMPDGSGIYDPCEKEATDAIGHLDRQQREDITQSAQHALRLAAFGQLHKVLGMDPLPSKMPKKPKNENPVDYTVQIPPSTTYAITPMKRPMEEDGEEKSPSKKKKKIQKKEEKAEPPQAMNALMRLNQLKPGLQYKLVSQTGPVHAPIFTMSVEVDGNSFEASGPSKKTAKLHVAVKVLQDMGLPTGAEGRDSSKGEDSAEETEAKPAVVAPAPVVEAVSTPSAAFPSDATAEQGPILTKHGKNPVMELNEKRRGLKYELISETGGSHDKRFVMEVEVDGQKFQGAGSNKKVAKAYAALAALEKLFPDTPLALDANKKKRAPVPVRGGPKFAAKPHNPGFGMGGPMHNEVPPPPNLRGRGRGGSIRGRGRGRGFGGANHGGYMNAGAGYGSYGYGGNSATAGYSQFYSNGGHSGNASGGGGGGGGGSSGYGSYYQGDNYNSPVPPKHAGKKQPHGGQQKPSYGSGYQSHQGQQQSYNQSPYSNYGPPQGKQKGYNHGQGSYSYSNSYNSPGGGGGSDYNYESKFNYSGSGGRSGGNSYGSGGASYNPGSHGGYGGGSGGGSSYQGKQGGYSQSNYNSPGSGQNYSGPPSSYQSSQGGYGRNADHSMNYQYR
Assay: affinity purification with mass spectrometry; ILF3 pulled down from SW620 cells with or without TNF-α treatment, then LC-MS; 141 differential proteins intersected with 362 E3 ubiquitin ligases of the UbiNet database

B1: E3 ligase TRIM17 (protein, UniProt Q9Y577 1-477)
chain: MEAVELARKLQEEATCSICLDYFTDPVMTTCGHNFCRACIQLSWEKARGKKGRRKRKGSFPCPECREMSPQRNLLPNRLLTKVAEMAQQHPGLQKQDLCQEHHEPLKLFCQKDQSPICVVCRESREHRLHRVLPAEEAVQGYKLKLEEDMEYLREQITRTGNLQAREEQSLAEWQGKVKERRERIVLEFEKMNLYLVEEEQRLLQALETEEEETASRLRESVACLDRQGHSLELLLLQLEERSTQGPLQMLQDMKEPLSRKNNVSVQCPEVAPPTRPRTVCRVPGQIEVLRGFLEDVVPDATSAYPYLLLYESRQRRYLGSSPEGSGFCSKDRFVAYPCAVGQTAFSSGRHYWEVGMNITGDALWALGVCRDNVSRKDRVPKCPENGFWVVQLSKGTKYLSTFSALTPVMLMEPPSHMGIFLDFEAGEVSFYSVSDGSHLHTYSQATFPGPLQPFFCLGAPKSGQMVISTVTMWVKG
Q: B1 was tested. Which binding did it give?
A: Its binding is “binds”.

No constants are given. Whether binding was seen depends on the method and setting. Binding seen in cells or lysates may run through a third protein. Here binding means that the protein was enriched with, or labelled near, the bait; the list need not be complete.
